This passage reports Carrier mobility and ON-OFF ratio results from US9537110B2, “Chalcogen-containing organic compound and use thereof” (JNC CORPORATION, priority 2012, dated 2017).

The nature of data set [1]: Bottom gate-top contact organic FET, film formed by gap-cast process. Particulars: o-dichlorobenzene solution 0.2% by mass, 120° C.
The nature of data set [2]: Bottom gate-top contact organic FET, film formed by vapor deposition process. The conditions noted are these: vapor-deposited organic semiconductor layer, film thickness 75 nm.
Data set [3] is described as follows: Bottom gate-top contact organic FET, film formed by edge-cast process. Particulars: o-xylene or 1,2-dichloroethane solution 0.2% by mass, 120° C.

Consider `CCCCCCCCCCc1ccc2cc3c(cc2c1)sc1cc2cc(CCCCCCCCCC)ccc2cc13` [Example 6, 3,9-didecyldinaphtho[2,3-b:2′,3′-d]thiophene], for which the values for the Carrier mobility in data set [1] and in data set [2] were 6.5 cm^2/V • s and 5.5 cm^2/V·s, respectively. Further, the ON-OFF ratio in data set [1] and in data set [2] was 10^7 each time.

Consider `CCCCCCCCCCc1ccc2cc3oc4cc5ccc(CCCCCCCCCC)cc5cc4c3cc2c1` [Example 1, 2,10-didecyldinaphtho[2,3-b:2′,3′-d]furan], for which, in data set [3], the Carrier mobility is 1.3 cm^2/V • s and the ON-OFF ratio is 10^6.

For the compound `c1ccc2cc3c(cc2c1)sc1cc2ccccc2cc13` [Comparative Example 1, dinaphtho[2,3-b:2′,3′-d]thiophene], in data set [2], the Carrier mobility amounted to 0.4 cm^2/V·s and the ON-OFF ratio was 10^6.

In the case of `CCCCCCCCc1ccc2cc3c(cc2c1)sc1cc2cc(CCCCCCCC)ccc2cc13` [Example 8, 3,9-dioctyldinaphtho[2,3-b:2′,3′-d]thiophene], in data set [1], the Carrier mobility is on record as 4.5 cm^2/V • s and the ON-OFF ratio was 10^7.

As to `CCCCCCCCCCc1ccc2cc3sc4cc5ccc(CCCCCCCCCC)cc5cc4c3cc2c1` [Example 2, 2,10-didecyldinaphtho[2,3-b:2′,3′-d]thiophene], in data set [3], the Carrier mobility was 1.0 cm^2/V • s and the ON-OFF ratio is 10^5.

Turning to `CCCCc1ccc2cc3c(cc2c1)sc1cc2cc(CCCC)ccc2cc13` [Example 9, 3,9-dibutyldinaphtho[2,3-b:2′,3′-d]thiophene], in data set [3], the Carrier mobility is 6.0 cm^2/V • s and the ON-OFF ratio was 10^6.

For `CCCCCCc1ccc2cc3c(cc2c1)sc1cc2cc(CCCCCC)ccc2cc13` [Example 7, 3,9-dihexyldinaphtho[2,3-b:2′,3′-d]thiophene], in data set [3], the Carrier mobility stood at 11.0 cm^2/V • s and the ON-OFF ratio is on record as 10^7.

As to `CCCCCCCCCCc1ccc2cc3c(cc2c1)oc1cc2cc(CCCCCCCCCC)ccc2cc13` [Example 3, 3,9-didecyldinaphtho[2,3-b:2′,3′-d]furan], in data set [3], the Carrier mobility came out at 2.0 cm^2/V • s and the ON-OFF ratio was 10^5.
